Experimental data published in US20220235132A1.
Results are given in words; binding and its absence hold for the method and conditions named. A result given as binding can be weak or reduced; the word gives no strength.

Target: human PD-1 monomer with mutations in the top of the loop labeled HDX mapped beta-hairpin (human)
Assay: SPR with mutated human PD-1 monomer

B1: APE12095 (3.7C6 anti-PD-1 antibody, ExpiCHO-S transient) (antibody, V domains shown)
VH: QVQLVQSGSELKKPGASVKVSCKASNYTFTDYSMHWVRQAPGQGLEWMGWINIETYYPTYADQFKGRFAFSLDTSVSTAYLQISSLKAEDTAVYYCARDYYGRFYYAMDYWGQGTTVTVSS
VL: EIVLTQSPATLSLSPGERATLSCTASSSVSSSYFHWYQQKPGQAPRLLIYSTSNLASGIPARFSGSGSGTDFTLTISRLEPEDFAVYYCHQYHRSPLTFGGGTKVEIKR
binding: binds
